Experimental data as given in US20240373847A1, “HERBICIDAL MALONAMIDES” (BASF SE, priority 2021, published 2024).
Some results were stated once for a whole list of compounds, not compound by compound. At least one structure is not confirmed: it was looked up by name or label, or the drawing left a doubt.

Experiments:
Format in all cases: in vivo
[1] = test system: Abutilon theophrasti (ABUTH); assay: greenhouse test, post-emergence treatment; conditions: 0.250 kg/ha, post-emergence method; scale from 0 to 100
[2] = test system: Apera spica-venti (APESV); assay: greenhouse test, pre-emergence treatment; conditions: 0.250 kg/ha, pre-emergence method; scale from 0 to 100
Text: (§1) The culture containers used were plastic flowerpots containing loamy sand with approximately 3.0% of humus as the substrate. The seeds of the test plants were sown separately for each species.
(§2) For the pre-emergence treatment, the active ingredients, which had been suspended or emulsified in water, were applied directly after sowing by means of finely distributing nozzles. The containers were irrigated gently to promote germination and growth and subsequently covered with transparent plastic hoods until the test plants had rooted.
(§3) This cover caused uniform germination of the test plants, unless this had been impaired by the active ingredients.
(§4) Depending on the species, the test plants were kept at 10-25° C. or 20-35° C., respectively.
(§5) The test period extended over 2 to 4 weeks. During this time, the test plants were tended, and their response to the individual treatments was evaluated.
(§6) Evaluation was carried out using a scale from 0 to 100. 100 means no emergence of the test plants, or complete destruction of at least the aerial moieties, and 0 means no damage, or normal course of growth. A good herbicidal activity is given at values of 70 to <90 and a very good herbicidal activity is given at values of 90 to 100.
(§7) The test plants used in the greenhouse experiments were of the following species: […]

[3] = test system: Echinocloa crus-galli (ECHCG); assay: greenhouse test, pre-emergence treatment; conditions: 0.250 kg/ha, pre-emergence method; scale from 0 to 100
Text: as §1, §2, §3, §4, §5, §6, §7

[4] = test system: Amaranthus retroflexus (AMARE); assay: greenhouse test, pre-emergence treatment; conditions: 0.250 kg/ha, pre-emergence method; scale from 0 to 100
Text: as §1, §2, §3, §4, §5, §6, §7

Avena fatua (AVEFA) = assay: greenhouse test, post-emergence treatment; conditions: 0.250 kg/ha, post-emergence method; scale from 0 to 100
[5] = test system: Echinocloa crus-galli (ECHCG); assay: greenhouse test, post-emergence treatment; conditions: 0.250 kg/ha, post-emergence method; scale from 0 to 100
Text: as §1
(§8) For the post-emergence treatment, the test plants were first grown to a height of 3 to 15 cm, depending on the plant habit, and only then treated with the active ingredients which had been suspended or emulsified in water. For this purpose, the test plants were either sown directly and grown in the same containers, or they were first grown separately as seedlings and transplanted into the test containers a few days prior to treatment.
as §4, §5, §6, §7

[6] = test system: Amaranthus retroflexus (AMARE); assay: greenhouse test, post-emergence treatment; conditions: 0.250 kg/ha, post-emergence method; scale from 0 to 100
Text: as §1, §8, §4, §5, §6, §7

[7] = test system: Alopercurus myosuroides (ALOMY); assay: greenhouse test, post-emergence treatment; conditions: 0.250 kg/ha, post-emergence method; scale from 0 to 100
Setaria viridis (SETVI) = assay: greenhouse test, post-emergence treatment; conditions: 0.250 kg/ha, post-emergence method; scale from 0 to 100
Text: as §1, §8, §4, §5, §6, §7

| SMILES | herbicidal activity against ABUTH [1] | herbicidal activity against APESV [2] | herbicidal activity against ECHCG [3] | herbicidal activity against AMARE [4] | herbicidal activity against AVEFA (Avena fatua (AVEFA)) | herbicidal activity against ECHCG [5] | herbicidal activity against AMARE [6] | herbicidal activity against ALOMY [7] | herbicidal activity against SETVI (Setaria viridis (SETVI)) |
| --- | --- | --- | --- | --- | --- | --- | --- | --- | --- |
| CCC(C(=O)Nc1cccc(OC(F)(F)F)c1)C(=O)NC1C=CC(C(=O)OC)C1 (mixture of isomers) [I.108] | very good herbicidal activity (a very good herbicidal activity is given at values of 90 to 100) | very good herbicidal activity (a very good herbicidal activity is given at values of 90 to 100) | very good herbicidal activity (a very good herbicidal activity is given at values of 90 to 100) | very good herbicidal activity (a very good herbicidal activity is given at values of 90 to 100) | very good herbicidal activity (a very good herbicidal activity is given at values of 90 to 100) | very good herbicidal activity (a very good herbicidal activity is given at values of 90 to 100) | – | – | – |
| CCC(C(=O)Nc1cccc(OC(F)(F)F)c1)C(=O)NC1C=CC(C(=O)OCc2ccccc2)C1 (mixture of isomers) [I.167] | – | – | – | good herbicidal activity (A good herbicidal activity is given at values of 70 to <90) | good herbicidal activity (A good herbicidal activity is given at values of 70 to <90) | good herbicidal activity (A good herbicidal activity is given at values of 70 to <90) | good herbicidal activity (A good herbicidal activity is given at values of 70 to <90) | – | – |
| COC(=O)[C@@H]1C=C[C@H](NC(=O)C(C)C(=O)Nc2cc(F)cc(OC)c2)C1 (stereo partly shown) [I.6] | good herbicidal activity (A good herbicidal activity is given at values of 70 to <90) | very good herbicidal activity (a very good herbicidal activity is given at values of 90 to 100) | very good herbicidal activity (a very good herbicidal activity is given at values of 90 to 100) | very good herbicidal activity (a very good herbicidal activity is given at values of 90 to 100) | very good herbicidal activity (a very good herbicidal activity is given at values of 90 to 100) | – | – | very good herbicidal activity (a very good herbicidal activity is given at values of 90 to 100) | – |
| COC(=O)[C@@H]1C=C[C@H](NC(=O)C(C)C(=O)Nc2cc(F)cc(Cl)c2)C1 (stereo partly shown) [I.7] | very good herbicidal activity (a very good herbicidal activity is given at values of 90 to 100) | very good herbicidal activity (a very good herbicidal activity is given at values of 90 to 100) | – | very good herbicidal activity (a very good herbicidal activity is given at values of 90 to 100) | very good herbicidal activity (a very good herbicidal activity is given at values of 90 to 100) | – | – | – | very good herbicidal activity (a very good herbicidal activity is given at values of 90 to 100) |
| CCOC(=O)CC(C)NC(=O)C(C)C(=O)Nc1cc(C)cc(F)c1 (stereo not shown) [I.12] | – | – | – | very good herbicidal activity (a very good herbicidal activity is given at values of 90 to 100) | good herbicidal activity (A good herbicidal activity is given at values of 70 to <90) | – | – | good herbicidal activity (A good herbicidal activity is given at values of 70 to <90) | – |
| C#CCOC(=O)CC(C)NC(=O)C(C)C(=O)Nc1cc(F)cc(F)c1 (stereo not shown) [I.18] | – | good herbicidal activity (A good herbicidal activity is given at values of 70 to <90) | – | good herbicidal activity (A good herbicidal activity is given at values of 70 to <90) | good herbicidal activity (A good herbicidal activity is given at values of 70 to <90) | – | – | good herbicidal activity (A good herbicidal activity is given at values of 70 to <90) | – |
